{"source": "PubChem BioAssay AID686938 – Drosophila RNAi Screening Center – 2013", "screen": "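Knock-downs reducing store-operated calcium influx in Drosophila cells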 (primary screen)", "system": "Drosophila S2R+ cells", "reagent": "long dsRNA against Drosophila genes, about 0.25 µg dsRNA per well, roughly 10,000 cells", "duration": "5 days of knock-down before the calcium assay", "conditions": "thapsigargin (SERCA pump blocker) to empty calcium stores; entry signal taken 4 min after adding it", "measured": "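Per-well fluo-4 fluorescence in two replicates, unnormalised, measured in resting cells and 4 min after store depletion by the SERCA blocker thapsigargin; ratio of the two present in few wells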", "scale": "calcium entry signal: higher = stronger calcium signal after store depletion; resting calcium signal: higher = higher resting calcium signal", "units": "calcium entry signal in fluorescence units; resting calcium signal in fluorescence units", "hit rule": "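Hit if the duplicate-averaged plate z-score for entry over resting signal is under −3; wells with weak total dye signal (Fmax z < −2) or more than 5 off-targets removed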", "meaning of the calls": "active = strongly reduced calcium entry; inactive = no strong reduction", "note": "In all, the deposit lists about 23,000 reagents; shown is a random part of those that have a named target and a result. Over the whole deposit, 75 (0.33%) got an active call. 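Raw plate signals without normalisation; calls rest on plate z-scores that were not deposited; ratio present for only 364 wells.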 Unmarked entries are inactive. A plus sign joins genes that one reagent is predicted to hit. Not stated in the record: the dose of the treatment."}
{"target": "CG10226", "DRSC id": "DRSC09715", "calcium entry signal, replicate 1": 4.19e7, "calcium entry signal, replicate 2": 3.35e7, "resting calcium signal, replicate 1": 2.65e7, "resting calcium signal, replicate 2": 1.55e7}
{"target": "CG7857", "DRSC id": "DRSC10925", "calcium entry signal, replicate 1": 2.91e7, "calcium entry signal, replicate 2": 5.26e7, "resting calcium signal, replicate 1": 1.55e7, "resting calcium signal, replicate 2": 2.04e7}
{"target": "SsRbeta", "DRSC id": "DRSC11290", "calcium entry signal, replicate 1": 3.92e7, "calcium entry signal, replicate 2": 4.57e7, "resting calcium signal, replicate 1": 1.75e7, "resting calcium signal, replicate 2": 3.01e7}
{"target": "CG3107", "DRSC id": "DRSC04888", "calcium entry signal, replicate 1": 3.30e7, "resting calcium signal, replicate 1": 1.63e7}
{"target": "MFS15", "DRSC id": "DRSC06523", "calcium entry signal, replicate 1": 4.30e7, "calcium entry signal, replicate 2": 4.35e7, "resting calcium signal, replicate 1": 1.90e7, "resting calcium signal, replicate 2": 2.16e7}
{"target": "CG11191", "DRSC id": "DRSC06056", "calcium entry signal, replicate 1": 3.14e7, "calcium entry signal, replicate 2": 2.92e7, "resting calcium signal, replicate 1": 1.42e7, "resting calcium signal, replicate 2": 1.52e7}
{"target": "CG11191", "DRSC id": "DRSC23224", "calcium entry signal, replicate 1": 3.49e7, "calcium entry signal, replicate 2": 3.84e7, "resting calcium signal, replicate 1": 1.70e7, "resting calcium signal, replicate 2": 1.77e7}
{"target": "Arp10", "DRSC id": "DRSC19448", "calcium entry signal, replicate 1": 3.79e7, "calcium entry signal, replicate 2": 3.92e7, "resting calcium signal, replicate 1": 1.81e7, "resting calcium signal, replicate 2": 1.72e7}
{"target": "CG5376", "DRSC id": "DRSC15782", "calcium entry signal, replicate 1": 3.21e7, "calcium entry signal, replicate 2": 3.95e7, "resting calcium signal, replicate 1": 6.45e7, "resting calcium signal, replicate 2": 1.75e7}

Taken from above.
CG5376 [DRSC15782], resting calcium signal, replicate 1: 6.45e7
For “calcium entry signal, replicate 2”, CG10226 [DRSC09715] is entered as 3.35e7

Next entries follow:
{"target": "Hsc70-3", "DRSC id": "DRSC20253", "calcium entry signal, replicate 1": 1.65e7, "calcium entry signal, replicate 2": 2.76e7, "resting calcium signal, replicate 1": 1.02e7, "resting calcium signal, replicate 2": 1.50e7}
{"target": "Mst98Cb", "DRSC id": "DRSC16750", "calcium entry signal, replicate 1": 3.37e7, "calcium entry signal, replicate 2": 4.12e7, "resting calcium signal, replicate 1": 1.69e7, "resting calcium signal, replicate 2": 2.22e7}
{"target": "Mst98Cb", "DRSC id": "DRSC22495", "calcium entry signal, replicate 1": 4.63e7, "calcium entry signal, replicate 2": 3.77e7, "resting calcium signal, replicate 1": 2.92e7, "resting calcium signal, replicate 2": 1.86e7}
{"target": "Mocs2A + Mocs2B", "DRSC id": "DRSC13697", "calcium entry signal, replicate 1": 2.65e7, "calcium entry signal, replicate 2": 1.85e7, "resting calcium signal, replicate 1": 1.31e7, "resting calcium signal, replicate 2": 1.04e7}
{"target": "Mocs2A + Mocs2B", "DRSC id": "DRSC14219", "calcium entry signal, replicate 1": 4.89e7, "calcium entry signal, replicate 2": 5.34e7, "resting calcium signal, replicate 1": 2.39e7, "resting calcium signal, replicate 2": 2.03e7}
{"target": "CG43740", "DRSC id": "DRSC17848", "calcium entry signal, replicate 1": 2.33e7, "calcium entry signal, replicate 2": 4.40e7, "resting calcium signal, replicate 1": 1.26e7, "resting calcium signal, replicate 2": 1.91e7}
{"target": "CG43740", "DRSC id": "DRSC17994", "calcium entry signal, replicate 1": 2.16e7, "calcium entry signal, replicate 2": 4.29e7, "resting calcium signal, replicate 1": 1.07e7, "resting calcium signal, replicate 2": 1.95e7}
{"target": "CG43740", "DRSC id": "DRSC23059", "calcium entry signal, replicate 1": 3.05e7, "calcium entry signal, replicate 2": 3.14e7, "resting calcium signal, replicate 1": 1.59e7, "resting calcium signal, replicate 2": 1.48e7}
{"target": "CG43740", "DRSC id": "DRSC23267", "calcium entry signal, replicate 1": 7.14e7, "calcium entry signal, replicate 2": 2.73e7, "resting calcium signal, replicate 1": 3.19e7, "resting calcium signal, replicate 2": 1.20e7}
{"target": "CG7896", "DRSC id": "DRSC16335", "calcium entry signal, replicate 1": 3.45e7, "calcium entry signal, replicate 2": 4.26e7, "resting calcium signal, replicate 1": 1.54e7, "resting calcium signal, replicate 2": 1.89e7}
{"target": "HDAC6", "DRSC id": "DRSC20252", "calcium entry signal, replicate 1": 3.01e7, "calcium entry signal, replicate 2": 4.00e7, "resting calcium signal, replicate 1": 1.30e7, "resting calcium signal, replicate 2": 1.70e7}
{"target": "Rpn2", "DRSC id": "DRSC16839", "calcium entry signal, replicate 1": "1.65e7 (active)", "calcium entry signal, replicate 2": 1.59e7, "resting calcium signal, replicate 1": 1.23e7, "resting calcium signal, replicate 2": 1.08e7}
